Results are given in words; binding and its absence hold for the method and conditions named. Some entries that bind do so weakly or less than the wild type.
Tests used:
LRP6e1e2 [1] = target: T1, LRP6e1e2 (UniProt O75581 20-630, limits assumed, C-terminally biotinylated); assay: Octet BLI or BIAcore SPR
T1 construct: domain: E1E2; also called LRP6 E1E2 domains
T1 sequence (looked up): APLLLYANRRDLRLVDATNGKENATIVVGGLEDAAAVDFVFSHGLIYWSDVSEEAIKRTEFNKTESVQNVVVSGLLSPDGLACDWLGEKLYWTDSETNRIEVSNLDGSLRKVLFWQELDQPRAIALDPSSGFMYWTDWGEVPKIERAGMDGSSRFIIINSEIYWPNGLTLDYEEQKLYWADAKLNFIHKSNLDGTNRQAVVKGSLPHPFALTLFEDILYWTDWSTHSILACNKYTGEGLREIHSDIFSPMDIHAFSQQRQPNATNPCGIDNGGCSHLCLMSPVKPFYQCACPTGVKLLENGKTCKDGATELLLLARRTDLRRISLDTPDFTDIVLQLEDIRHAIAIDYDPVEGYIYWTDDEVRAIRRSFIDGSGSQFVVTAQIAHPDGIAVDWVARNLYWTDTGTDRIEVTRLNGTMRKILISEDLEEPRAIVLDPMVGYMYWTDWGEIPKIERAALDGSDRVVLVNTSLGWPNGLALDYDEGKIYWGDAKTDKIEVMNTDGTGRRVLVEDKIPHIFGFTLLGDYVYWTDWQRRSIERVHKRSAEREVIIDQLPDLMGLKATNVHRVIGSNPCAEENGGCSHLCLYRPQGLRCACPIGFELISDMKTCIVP

Sequences of proteins named here, by UniProt entry; tags and fusion partners are left off.
UniProt O75197: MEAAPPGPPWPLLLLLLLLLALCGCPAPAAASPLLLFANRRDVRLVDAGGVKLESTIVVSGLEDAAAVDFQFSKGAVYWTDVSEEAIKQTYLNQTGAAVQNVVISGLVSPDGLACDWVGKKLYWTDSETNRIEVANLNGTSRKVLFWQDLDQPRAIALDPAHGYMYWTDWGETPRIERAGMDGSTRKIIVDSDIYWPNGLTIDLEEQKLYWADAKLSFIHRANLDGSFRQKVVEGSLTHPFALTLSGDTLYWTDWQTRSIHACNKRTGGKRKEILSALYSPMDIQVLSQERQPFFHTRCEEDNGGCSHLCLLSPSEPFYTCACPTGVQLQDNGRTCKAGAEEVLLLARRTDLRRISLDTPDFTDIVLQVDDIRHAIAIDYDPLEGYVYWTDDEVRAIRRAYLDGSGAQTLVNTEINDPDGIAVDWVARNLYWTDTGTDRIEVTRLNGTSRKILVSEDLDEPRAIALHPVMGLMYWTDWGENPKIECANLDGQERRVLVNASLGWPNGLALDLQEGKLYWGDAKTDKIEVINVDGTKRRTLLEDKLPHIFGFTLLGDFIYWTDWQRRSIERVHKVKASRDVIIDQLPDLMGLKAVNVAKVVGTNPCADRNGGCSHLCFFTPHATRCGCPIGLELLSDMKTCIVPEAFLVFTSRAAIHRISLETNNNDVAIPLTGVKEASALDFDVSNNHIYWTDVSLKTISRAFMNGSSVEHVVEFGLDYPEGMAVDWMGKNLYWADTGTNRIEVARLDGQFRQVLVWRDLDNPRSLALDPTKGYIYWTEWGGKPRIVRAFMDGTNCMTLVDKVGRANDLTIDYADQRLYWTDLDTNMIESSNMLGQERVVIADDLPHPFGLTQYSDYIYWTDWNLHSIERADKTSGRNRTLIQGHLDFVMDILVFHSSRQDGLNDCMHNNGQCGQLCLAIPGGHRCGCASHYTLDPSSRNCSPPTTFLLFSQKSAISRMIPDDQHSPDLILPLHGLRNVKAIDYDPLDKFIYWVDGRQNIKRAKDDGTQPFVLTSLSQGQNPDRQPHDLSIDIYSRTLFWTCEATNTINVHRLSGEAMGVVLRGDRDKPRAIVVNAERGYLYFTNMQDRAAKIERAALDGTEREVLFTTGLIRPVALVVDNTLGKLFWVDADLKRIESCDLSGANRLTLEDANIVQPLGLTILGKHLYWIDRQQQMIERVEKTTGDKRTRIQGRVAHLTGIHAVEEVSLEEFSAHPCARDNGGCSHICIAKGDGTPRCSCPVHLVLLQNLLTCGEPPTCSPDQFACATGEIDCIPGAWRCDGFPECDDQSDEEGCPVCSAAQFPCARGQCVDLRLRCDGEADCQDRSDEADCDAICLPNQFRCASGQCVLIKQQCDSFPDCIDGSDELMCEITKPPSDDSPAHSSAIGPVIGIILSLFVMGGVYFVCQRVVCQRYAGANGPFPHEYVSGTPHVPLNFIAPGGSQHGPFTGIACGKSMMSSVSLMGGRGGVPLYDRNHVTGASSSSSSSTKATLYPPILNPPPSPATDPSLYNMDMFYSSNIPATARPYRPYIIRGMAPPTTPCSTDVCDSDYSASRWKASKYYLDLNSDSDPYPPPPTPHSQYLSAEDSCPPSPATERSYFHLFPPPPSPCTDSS

LRP6e1e2 [2] = target: T1, LRP6e1e2; assay: Confirmed Binding column of Table 1A
LRP6e1e2 [3] = target: T1, LRP6e1e2; assay: Octet BLI
Description: Binding kinetics of antibody fragments to LRP5 extracellular domain (LRP5 ECD) and/or LRP6 extracellular domain (LRP6 ECD) protein targets was determined by bio-layer interferometry (BLI) using Octet Red 96 (PALL ForteBio, Fremont, Calif.) instruments at 30° C., 1000 rpm with streptavidin (SA) biosensors. C-terminal biotinylated LRP ECD recombinant protein was diluted to 20 nM in the running buffer (PBS, 0.05% Tween-20, 0.5% BSA, pH 7.2) and captured to the SA biosensor until coupling length reached 0.2 nm. Following capture of the LRP5 or LRP6, the SA biosensor with captured biotinylated-LRP5 or biotinylated LRP6 was dipped into wells containing the relevant antibody fragment at […] (0, 1.37, 4.12, 12.4, 37, 111.1, 333.3, 1000 nM) in running buffer, plus a well with only running buffer as a reference channel. KD was determined by global fitting, 1:1 binding model according to manufacturer recommended settings.

LRP5 [4] = target: LRP5 (UniProt O75197); assay: Octet BLI or BIAcore SPR
LRP5 [5] = target: LRP5 (UniProt O75197); assay: Confirmed Binding column of Table 1A

Binder | binding (LRP6e1e2 [1]) | binding (LRP6e1e2 [2]) | binding (LRP6e1e2 [3]) | binding (LRP5 [4]) | binding (LRP5 [5])
001S-F11 (VHH) VHH: QVQLVESGGGLVQAGGSLRLSCAASGRTFSSYAMSWFRQAPGKEREFVAVIGRSGGIKYYADSVKGRFTISRDNTINTVYLQMNNLTPEDTAIYYCATRRPFNSYNTEQSYDSWGRGTLVTVSS | binds | binds |  |  | 
009S-F03 (VHH) VHH: DVQLVESGGGLVQAGGSLRLSCAASGRTFSSYAMSWFRQAPGKEREFVAVIGRSGGIKYYADSVKGRFTISRDNTINTVYLQMNNLTPEDTAIYYCATRRPFNSYNTEQSYDSWGRGTLVTVSS | binds | binds | binds |  | 
009S-G02 (VHH) VHH: AVQLVESGGGLVQAGGSLRLSCGVSGSIFSIYAMGWYRQAPGKERELVAVITSGGKTVYADSVKGRFTITEDAAKNTVYLQMNSLKAEDTAVYYCYADSRSSWYDEYLEHWGRGTLVTVSS | binds | binds | binds |  | 
009S-H03 (VHH) VHH: DVQLVESGGGLVQAGESLRLSCAASGSIFSINTMGWYRQAPGKERELVAVITSGGKTVYADSVKGRFTITEDAAKNTVYLQMNSLKAEDTAVYYCYADSRSSWYDEYLEHWGQGTLVTVSS | binds | binds | binds |  | 
009S-A03 (VHH) VHH: QVQLVESGGGLVQAGDSLRLSCVVSGRTFSVYGVGWFRQAPGKEREVVAAVSASGGYTWYADSVKGRFTISRDNAKSTAFLQMNSLQPEDTAVYYCKAAPRWGGATAYWGQGTQVTVSS | binds | binds | binds |  | 
009S-D03 (VHH) VHH: DVQLVESGGGLVQPGGSLRLSCAAPGSIFSDGAMGWYRQAPGKQRELVAVISGGRTGYADFVKGRFTISRDNGKNTVNLQMNRLEPEDTAVYFCNTYPFPIYKKGYPFWGQGTQVTVSS | binds | binds | binds |  | 
009S-A04 (VHH) VHH: AVQLVESGGGLVQAGGSLRLSCAASGRTLSAYDMGWFRQAPGKERELVGGIRWSGGTTLYPDSVKGRFTISRDNAKNTVYLQMNSLKPEDSAVYYCYARTVIGGFGAFRAHWGQGTQVTVSS | binds | binds | binds |  | 
008S-D01 (VHH) VHH: DVQLVESGGGLVQPGGSLRLSCTSSANINSIETLGWYRQAPGKQRELIANMRGGGYMKYAGSLKGRFTMSTESAKNTMYLQMNSLKPEDTAVYYCYVKLRDDDYVYRGQGTQVTVSS |  |  |  | binds | binds
009S-D04 (VHH) VHH: QVKLEESGGGLVQPGGSLRLSCETSATIVSIYRINWYRQAPGKQREWVAGITSSGRTIYADSVKGRFTISRDNAKNTVYLQMNNLKPEDTAVYYCNAASTVTAWPYYGPDYWGKGTLVTVSS |  |  | binds |  | 

— patent US20210079089A1 (SURROZEN OPERATING, published 2021)
